These are yes or no findings as the source states them, for the method shown. Binding seen in cells or lysates may run through a third protein. Some binding calls cover weakened binding; strength is not graded here.
Molecular target: ObRb, the fully functional isoform of leptin receptor (mouse (endogenous in hippocampus of C57BL/6 mice)) (UniProt P48356)
Test: co-IP; hippocampal lysates (KCl 50 mM, Tris-HCl 50 mM pH 8, EDTA 10 mM, 1% NP-40) of mice fed a standard diet or a high-fat diet and injected i.p. with vehicle or leptin (3 mg/kg); precleared, precipitated with mouse anti-ObRb or IgG control on protein G-sepharose, 6 h at 4°C, six washes; immunoblot for STAT-3 or SOCS-3

Protein sequences, listed by entry. Tags and fused reporters are not part of them. Residues count along the entry.
UniProt P48356, residues 22-1162: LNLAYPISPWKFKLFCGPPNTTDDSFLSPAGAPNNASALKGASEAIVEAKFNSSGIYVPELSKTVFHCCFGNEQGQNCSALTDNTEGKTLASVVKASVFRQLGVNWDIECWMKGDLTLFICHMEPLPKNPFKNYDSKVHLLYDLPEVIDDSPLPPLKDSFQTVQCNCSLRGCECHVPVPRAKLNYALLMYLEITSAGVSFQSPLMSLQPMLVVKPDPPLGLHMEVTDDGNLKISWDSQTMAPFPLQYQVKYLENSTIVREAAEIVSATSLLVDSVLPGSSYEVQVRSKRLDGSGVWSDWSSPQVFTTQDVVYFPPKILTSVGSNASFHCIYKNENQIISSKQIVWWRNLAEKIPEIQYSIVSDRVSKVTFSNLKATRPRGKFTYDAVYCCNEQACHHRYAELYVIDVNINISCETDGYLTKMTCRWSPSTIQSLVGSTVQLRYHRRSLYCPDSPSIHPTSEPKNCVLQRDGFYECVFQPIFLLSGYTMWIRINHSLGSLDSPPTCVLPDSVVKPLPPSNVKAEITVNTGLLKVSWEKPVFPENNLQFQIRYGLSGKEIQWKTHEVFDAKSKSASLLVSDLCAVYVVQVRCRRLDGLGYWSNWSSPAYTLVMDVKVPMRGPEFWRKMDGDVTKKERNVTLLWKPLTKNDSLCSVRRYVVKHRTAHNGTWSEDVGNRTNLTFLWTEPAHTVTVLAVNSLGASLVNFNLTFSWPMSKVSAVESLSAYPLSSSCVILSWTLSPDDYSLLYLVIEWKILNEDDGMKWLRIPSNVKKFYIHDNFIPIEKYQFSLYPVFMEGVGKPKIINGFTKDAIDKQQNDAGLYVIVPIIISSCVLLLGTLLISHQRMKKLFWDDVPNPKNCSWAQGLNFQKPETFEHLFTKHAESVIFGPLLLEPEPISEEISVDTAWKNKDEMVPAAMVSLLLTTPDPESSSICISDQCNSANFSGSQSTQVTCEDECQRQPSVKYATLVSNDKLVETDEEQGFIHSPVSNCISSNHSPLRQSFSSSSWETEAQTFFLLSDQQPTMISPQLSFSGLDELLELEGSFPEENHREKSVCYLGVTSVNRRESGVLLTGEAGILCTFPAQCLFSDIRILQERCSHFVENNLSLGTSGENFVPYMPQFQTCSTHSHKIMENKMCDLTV
UniProt P42227: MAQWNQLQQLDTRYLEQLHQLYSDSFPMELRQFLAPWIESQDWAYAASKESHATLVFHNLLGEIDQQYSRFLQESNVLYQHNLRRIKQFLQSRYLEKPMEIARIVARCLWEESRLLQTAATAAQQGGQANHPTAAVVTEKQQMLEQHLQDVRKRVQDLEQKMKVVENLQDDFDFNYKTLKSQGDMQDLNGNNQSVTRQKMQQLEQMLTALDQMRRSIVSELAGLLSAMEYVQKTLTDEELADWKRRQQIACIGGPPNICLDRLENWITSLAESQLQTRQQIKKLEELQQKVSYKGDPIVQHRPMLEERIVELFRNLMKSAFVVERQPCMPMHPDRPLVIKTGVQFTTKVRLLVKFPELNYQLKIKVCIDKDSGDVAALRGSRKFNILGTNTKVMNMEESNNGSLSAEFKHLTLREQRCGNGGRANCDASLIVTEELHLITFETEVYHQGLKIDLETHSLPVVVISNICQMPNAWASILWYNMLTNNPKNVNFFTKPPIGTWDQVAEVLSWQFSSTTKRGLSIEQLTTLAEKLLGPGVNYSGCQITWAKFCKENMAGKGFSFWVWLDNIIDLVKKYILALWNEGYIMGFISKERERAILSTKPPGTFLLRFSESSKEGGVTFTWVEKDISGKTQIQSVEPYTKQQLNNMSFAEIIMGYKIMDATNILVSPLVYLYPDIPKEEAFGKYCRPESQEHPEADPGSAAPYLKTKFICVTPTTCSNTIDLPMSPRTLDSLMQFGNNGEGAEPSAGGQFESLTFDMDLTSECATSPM
UniProt O35718: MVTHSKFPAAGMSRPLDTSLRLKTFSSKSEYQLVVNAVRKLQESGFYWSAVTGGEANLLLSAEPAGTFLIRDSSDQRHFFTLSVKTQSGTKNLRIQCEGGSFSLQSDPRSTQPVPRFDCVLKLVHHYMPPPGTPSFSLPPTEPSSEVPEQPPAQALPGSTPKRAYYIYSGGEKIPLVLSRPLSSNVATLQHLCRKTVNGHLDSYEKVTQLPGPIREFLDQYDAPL

binding	Substance
binds	STAT-3 (from UniProt P42227 1-770)
binds	SOCS-3 (from UniProt O35718 1-225)
